The filed quantity is “Percent Effect” (%). The controls that fix the scale are not given in the record; negative values are as filed. The compounds are a random part of those screened.

Sequences of proteins named here, by UniProt entry; tags and fusion partners are left off. Residues count along the entry.
UniProt P9WPC5, whole entry: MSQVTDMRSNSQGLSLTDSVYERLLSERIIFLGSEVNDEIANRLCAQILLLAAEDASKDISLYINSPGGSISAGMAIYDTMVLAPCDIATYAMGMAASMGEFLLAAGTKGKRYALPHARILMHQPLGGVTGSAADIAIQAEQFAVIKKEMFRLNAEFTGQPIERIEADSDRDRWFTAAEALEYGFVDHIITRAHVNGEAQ
UniProt P9WPC3, whole entry partner: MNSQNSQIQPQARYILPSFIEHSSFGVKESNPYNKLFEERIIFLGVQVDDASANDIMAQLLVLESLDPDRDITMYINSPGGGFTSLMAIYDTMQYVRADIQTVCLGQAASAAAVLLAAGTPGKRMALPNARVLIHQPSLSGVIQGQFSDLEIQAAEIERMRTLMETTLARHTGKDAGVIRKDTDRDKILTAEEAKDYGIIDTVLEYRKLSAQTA
UniProt P9WFT3, whole entry: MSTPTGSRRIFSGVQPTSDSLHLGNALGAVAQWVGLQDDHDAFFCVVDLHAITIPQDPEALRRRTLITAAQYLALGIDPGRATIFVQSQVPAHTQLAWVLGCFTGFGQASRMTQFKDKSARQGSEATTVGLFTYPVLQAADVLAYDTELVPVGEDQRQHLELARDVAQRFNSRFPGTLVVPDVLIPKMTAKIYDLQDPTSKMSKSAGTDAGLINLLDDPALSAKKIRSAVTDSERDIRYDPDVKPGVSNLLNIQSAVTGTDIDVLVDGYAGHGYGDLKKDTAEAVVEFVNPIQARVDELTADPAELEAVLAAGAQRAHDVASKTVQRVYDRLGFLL
UniProt I6X8D2, whole entry: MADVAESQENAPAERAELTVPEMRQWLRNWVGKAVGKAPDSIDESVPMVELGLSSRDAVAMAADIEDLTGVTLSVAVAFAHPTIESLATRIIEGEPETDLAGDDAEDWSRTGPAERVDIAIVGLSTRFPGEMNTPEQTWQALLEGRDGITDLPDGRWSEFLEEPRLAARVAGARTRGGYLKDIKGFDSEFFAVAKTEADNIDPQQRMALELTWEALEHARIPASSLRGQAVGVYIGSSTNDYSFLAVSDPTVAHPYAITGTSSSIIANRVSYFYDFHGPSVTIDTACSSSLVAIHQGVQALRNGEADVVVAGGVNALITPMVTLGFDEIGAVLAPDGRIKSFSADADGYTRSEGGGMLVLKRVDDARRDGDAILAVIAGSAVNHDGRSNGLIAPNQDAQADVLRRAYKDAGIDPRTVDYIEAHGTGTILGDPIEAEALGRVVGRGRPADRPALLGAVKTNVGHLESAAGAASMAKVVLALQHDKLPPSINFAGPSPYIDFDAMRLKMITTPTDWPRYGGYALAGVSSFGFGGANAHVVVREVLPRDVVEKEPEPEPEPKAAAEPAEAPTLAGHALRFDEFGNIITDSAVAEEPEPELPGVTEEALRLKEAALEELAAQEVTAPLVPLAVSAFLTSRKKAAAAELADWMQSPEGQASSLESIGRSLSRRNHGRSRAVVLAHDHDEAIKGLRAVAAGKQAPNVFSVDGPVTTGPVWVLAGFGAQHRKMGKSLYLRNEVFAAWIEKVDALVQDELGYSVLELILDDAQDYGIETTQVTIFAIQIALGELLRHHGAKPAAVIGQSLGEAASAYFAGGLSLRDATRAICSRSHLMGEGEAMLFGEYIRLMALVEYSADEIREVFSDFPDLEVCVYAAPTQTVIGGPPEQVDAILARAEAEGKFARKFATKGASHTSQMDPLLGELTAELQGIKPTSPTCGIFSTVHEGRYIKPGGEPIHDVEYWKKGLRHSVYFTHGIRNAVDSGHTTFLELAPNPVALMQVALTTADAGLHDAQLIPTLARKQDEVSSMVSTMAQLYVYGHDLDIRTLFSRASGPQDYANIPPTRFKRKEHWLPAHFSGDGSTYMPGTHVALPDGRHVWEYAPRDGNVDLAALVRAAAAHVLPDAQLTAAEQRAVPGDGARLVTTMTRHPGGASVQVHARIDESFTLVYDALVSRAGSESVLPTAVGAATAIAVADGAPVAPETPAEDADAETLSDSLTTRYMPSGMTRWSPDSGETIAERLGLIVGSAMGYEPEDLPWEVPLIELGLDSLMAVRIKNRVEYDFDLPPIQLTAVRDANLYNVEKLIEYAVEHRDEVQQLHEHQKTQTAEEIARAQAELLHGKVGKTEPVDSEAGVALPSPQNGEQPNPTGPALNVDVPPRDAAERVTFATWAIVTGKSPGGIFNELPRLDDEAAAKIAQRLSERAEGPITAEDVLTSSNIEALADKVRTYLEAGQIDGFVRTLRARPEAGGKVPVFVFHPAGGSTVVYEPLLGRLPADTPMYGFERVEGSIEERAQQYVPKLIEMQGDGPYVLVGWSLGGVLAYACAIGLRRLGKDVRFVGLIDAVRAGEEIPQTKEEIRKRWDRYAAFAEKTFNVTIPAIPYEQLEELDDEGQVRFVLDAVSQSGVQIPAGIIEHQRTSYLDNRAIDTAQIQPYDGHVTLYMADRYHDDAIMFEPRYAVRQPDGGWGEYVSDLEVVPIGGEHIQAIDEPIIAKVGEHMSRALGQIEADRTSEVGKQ
UniProt Q8IDJ8, 1-583: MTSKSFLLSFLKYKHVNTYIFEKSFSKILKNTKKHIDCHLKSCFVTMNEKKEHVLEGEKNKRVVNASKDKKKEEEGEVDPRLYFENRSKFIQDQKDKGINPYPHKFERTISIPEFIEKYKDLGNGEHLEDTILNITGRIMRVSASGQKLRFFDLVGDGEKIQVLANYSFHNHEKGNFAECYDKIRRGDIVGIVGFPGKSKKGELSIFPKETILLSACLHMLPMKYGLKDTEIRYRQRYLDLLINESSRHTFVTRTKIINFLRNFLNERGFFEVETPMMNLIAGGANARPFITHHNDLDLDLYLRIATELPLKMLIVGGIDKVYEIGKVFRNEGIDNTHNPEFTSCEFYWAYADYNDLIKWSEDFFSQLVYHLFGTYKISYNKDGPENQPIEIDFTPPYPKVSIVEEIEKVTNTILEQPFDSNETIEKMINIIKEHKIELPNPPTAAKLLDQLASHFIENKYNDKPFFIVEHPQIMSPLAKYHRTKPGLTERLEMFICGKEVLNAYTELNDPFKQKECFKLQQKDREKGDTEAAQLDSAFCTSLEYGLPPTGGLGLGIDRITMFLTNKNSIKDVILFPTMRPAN

ClpP1P2: 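ClpP1P2, Mycobacterium tuberculosis (UniProt P9WPC5 and UniProt P9WPC3). Protease assay of ClpP1P2, read by the AMC dye that it sets free. Compounds at 50 µM. Higher reads as stronger inhibition, judged from the few compounds that gave an IC50. Most other retested compounds had strongly negative values. Of about 69,000 compounds tested this way, about 10 (0.015%) reached 50% or more in at least one test.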
MtTrpRS: 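Tryptophan-tRNA ligase, Mycobacterium tuberculosis (UniProt P9WFT3). Enzyme assay of tryptophanyl-tRNA synthetase; the read-out is not stated. Compounds at 10 µM. Direction is not recorded; retested compounds ran higher, which suggests that high means inhibition. Size under these conditions: about 65,000 compounds, about 64 of them at 50% or above in at least one test.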
Pks13 thioesterase: 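Enzyme assay of the thioesterase domain of polyketide synthase 13; the read-out is not stated. Target: Polyketide synthase Pks13, Mycobacterium tuberculosis (UniProt I6X8D2). Compounds at 30 µM. The record gives no direction; the compounds picked for IC50 retests had high values, so higher reads as stronger inhibition. Of about 67,000 compounds tested this way, about 300 (0.46%) reached 50% or more in at least one test.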
PfKRS1: 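Enzyme assay of the cytosolic lysyl-tRNA synthetase in 384-well plates, read by luminescence. Target: Lysine-tRNA ligase, Plasmodium falciparum 3D7 (UniProt Q8IDJ8). Compounds at 30 µM. Higher reads as stronger inhibition, judged from the few compounds that gave an IC50. Of about 69,000 compounds tested this way, about 49 (0.071%) reached 50% or more in at least one test.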

{"smiles": "c1ccc(-c2noc(CNC3CCc4ncnn4C3)n2)nc1", "stereo": "stereo not given", "ClpP1P2": -5.608, "MtTrpRS": -1.263, "Pks13 thioesterase": -3.135, "PfKRS1": 0.847}
{"smiles": "O=C(C1CCCC1)N1CCO[C@@H]2CNC[C@@H]21", "ClpP1P2": 2.631, "MtTrpRS": 9.881, "Pks13 thioesterase": 12.92, "PfKRS1": 5.086}
{"smiles": "CC(C)(NS(C)(=O)=O)C(=O)NCCc1csc2ccccc12", "ClpP1P2": -9.296, "MtTrpRS": 2.74, "Pks13 thioesterase": 3.133, "PfKRS1": 1.497}
{"smiles": "CC(CN1CCCC1=O)NC(=O)Nc1cccnc1-n1cccn1", "stereo": "stereo not given", "ClpP1P2": 9.343, "MtTrpRS": 10.01, "Pks13 thioesterase": -20.31, "PfKRS1": 0.9473}
{"smiles": "Cn1nnc2c1CCN(Cc1nccs1)C2COCc1ccccc1", "stereo": "stereo not given", "ClpP1P2": -0.5816, "MtTrpRS": 5.991, "Pks13 thioesterase": -24.25, "PfKRS1": 2.824}
{"smiles": "O=C(c1cnc2ccc(F)cc2c1NCc1ccccn1)N1CCCC1", "ClpP1P2": 9.197, "MtTrpRS": -1.54, "Pks13 thioesterase": -0.8133, "PfKRS1": 0.8461}
{"smiles": "COc1ncccc1CNC(=O)N(Cc1ccc(F)cc1F)C1CC1", "ClpP1P2": -15.62, "MtTrpRS": -7.615, "Pks13 thioesterase": -4.314, "PfKRS1": 1.779}
{"smiles": "O=S(=O)(c1ccc(Cl)cc1)N1CCOC[C@H](Oc2cnccn2)C1", "ClpP1P2": -13.82, "MtTrpRS": -1.297, "Pks13 thioesterase": -19.87, "PfKRS1": 2.502}
{"smiles": "CCS(=O)(=O)N1CCc2nc(N3CCOCC3)nc(N(C)C)c2CC1", "ClpP1P2": 2.238, "MtTrpRS": 2.913, "Pks13 thioesterase": -25.66, "PfKRS1": 11.65}
{"smiles": "Cn1nc(C(=O)NCc2cccc(Cn3ccnc3)c2)ccc1=O", "ClpP1P2": 0.8447, "MtTrpRS": -0.6717, "Pks13 thioesterase": -76.98, "PfKRS1": 9.259}
{"smiles": "CC(C)NC(=O)Nc1nc2c(s1)CN(C(=O)NCc1cccs1)CC2", "ClpP1P2": -3.035, "MtTrpRS": -0.08333, "Pks13 thioesterase": -2.43, "PfKRS1": 10.24}
{"smiles": "O=C(CN1CCCS1(=O)=O)Nc1ccc(OC2CCCC2)c(Cl)c1", "ClpP1P2": -3.378, "MtTrpRS": 3.003, "Pks13 thioesterase": -14.13, "PfKRS1": -0.03333}
{"smiles": "Cc1ccc(N2CCC3(CN(Cc4ccncc4)CCC3(F)F)C2)nn1", "stereo": "stereo not given", "ClpP1P2": -7.991, "Pks13 thioesterase": 6.541, "PfKRS1": 3.429}
{"smiles": "Cc1ncsc1CCN(C)Cc1cc2n(n1)CCN(S(C)(=O)=O)C2", "ClpP1P2": 8.885, "MtTrpRS": -1.455, "Pks13 thioesterase": -2.798, "PfKRS1": 9.52}
{"smiles": "COCc1ncn2c1CN(S(=O)(=O)c1cccc(OC)c1)CC2", "ClpP1P2": -9.935, "MtTrpRS": 21.45, "Pks13 thioesterase": 16.39, "PfKRS1": -2.272}
{"smiles": "CS(=O)(=O)NCC1(O)CCCN(C(=O)CCn2cc(Cl)cn2)CC1", "stereo": "stereo not given", "ClpP1P2": -2.81, "MtTrpRS": 5.63, "Pks13 thioesterase": -7.933, "PfKRS1": 9.518}
{"smiles": "COCCNc1ccc(CC2CCCN(c3ncccn3)C2)nn1", "stereo": "stereo not given", "ClpP1P2": -19.05, "MtTrpRS": -5.157, "Pks13 thioesterase": -2.592, "PfKRS1": 1.418}
{"smiles": "Cc1cccc(NC(=O)CN(C)C(=O)c2ccc(-n3cccc3)nc2)n1", "ClpP1P2": -0.2747, "MtTrpRS": -3.431, "Pks13 thioesterase": -28.04, "PfKRS1": -1.237}
{"smiles": "NC(=O)NCC(=O)N1CCC(c2cc(-c3ccccc3Cl)n[nH]2)CC1", "ClpP1P2": 5.008, "MtTrpRS": 1.732, "Pks13 thioesterase": -27.53, "PfKRS1": 9.818}
{"smiles": "CCc1cnc(CN(C(C)=O)C2CCN(CCN3CCCCC3)C2)o1", "stereo": "stereo not given", "ClpP1P2": -28.85, "MtTrpRS": -4.035, "Pks13 thioesterase": -2.124, "PfKRS1": 0.1013}

For reference, 3 entries once more:

- O=C(CN1CCCS1(=O)=O)Nc1ccc(OC2CCCC2)c(Cl)c1 | ClpP1P2: -3.378%; MtTrpRS: 3.003%; Pks13 thioesterase: -14.13%; PfKRS1: -0.03333%
- CCc1cnc(CN(C(C)=O)C2CCN(CCN3CCCCC3)C2)o1 (stereo not given) | ClpP1P2: -28.85%; MtTrpRS: -4.035%; Pks13 thioesterase: -2.124%; PfKRS1: 0.1013%
- Cn1nnc2c1CCN(Cc1nccs1)C2COCc1ccccc1 (stereo not given) | ClpP1P2: -0.5816%; MtTrpRS: 5.991%; Pks13 thioesterase: -24.25%; PfKRS1: 2.824%

Measurements from “University of Dundee, Small-Polar-MMV Screening Library” (2021), ChEMBL document CHEMBL3988442.